± gives the uncertainty stated by the source. Many entries were measured with a wide error.
Assay: self-splicing fitness, log relative to wild type (ln ratio); higher = more splicing; Tetrahymena group I intron in knt gene, E. coli kanamycin selection, DiMSum; sequences stand for … in CUCUCU…GGAGGGAAAAGUUAUCAGGCAUGCACCUGGUAGCUAGUCUUUAAACCAAUAGAUUGCAUCGGUUUAAAAGGCAAGACCGUCAAAUUGCGGGAAAGGGGUCAACAGCCGUUCAGUACCAAGUCUCAGGGGAAACUUUGAGAUGGCCUUGCAAAGGGUAUGGUAAUAAGCUGACGGACAUGGUCCUAACCACGCAGCCAAGUCCUAAGUCAACAGAUCUUCUGUUGAUAUGGAUGCAGUUCACAGACUAAAUGUCGGUCGGGGAAGAUGUAUUCUUCUCAUAAGAUAUAGUCGGACCUCUCCUUAAUGGGAGCUAGCGGAUGAAGUGAUGCAACACUGGAGCCGCUGGGAACUAAUUUGUAUGCGAAAGUAUAUUGAUUAGUUUUGGAGUACUCGUGGUCG
Summary of the method: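 Fitness was computed with DiMSum as the error-weighted combination of replicate fold changes, kanamycin versus none, each normalised to wild type. The library randomised all eight intron nucleotides of the P1ex region, with the intron placed in the knt kanamycin-resistance gene on pET-22b(+) in E. coli BL21(DE3). Six replicate transformations were grown overnight at 37°C or 30°C on LB agar with or without 25 μg/mL kanamycin, plus 100 μg/mL carbenicillin, 50 μM IPTG and 0.2% rhamnose. Pooled colonies were amplicon-sequenced on an Illumina HiSeq 2500.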

Sequence | self-splicing fitness (ln) (37 °C) | self-splicing fitness (ln) (30 °C)
CCGGAGCAAUAUUACGCCCC | -1.62 ± 1.1 | 
UCGAAGCAAUAUUACGCUAC | -2.52 ± 0.54 | 
UGGGAGCAAUAUUACGCAAG | -2.83 ± 0.76 | 
CUGUAGCAAUAUUACGAAAA | -2.64 ± 1.1 | 
CCGGAGCAAUAUUACGAGCA |  | -3.84 ± 0.76
CAGCAGCAAUAUUACGUACG | 0.866 ± 0.11 | -0.121 ± 0.08
GUGUAGCAAUAUUACGCAAG | -2.43 ± 0.76 | -2.1 ± 0.55
UUAGAGCAAUAUUACGCCUC | -2.29 ± 1.1 | -3.23 ± 0.78
UAGAAGCAAUAUUACGCUGA |  | -3.13 ± 0.53
GUAGAGCAAUAUUACGCAGA |  | -2.23 ± 0.69
CUCUAGCAAUAUUACGACCU | -3.68 ± 0.6 | 
CUCGAGCAAUAUUACGUACA | -2.02 ± 0.6 | -3.67 ± 0.75
GAGGAGCAAUAUUACGUUGG |  | -3.46 ± 0.62
GGUUAGCAAUAUUACGGAGA |  | -2.51 ± 0.8
AUUUAGCAAUAUUACGCCGG | 0.459 ± 1.2 | -2.85 ± 0.63
AUACAGCAAUAUUACGAGCC | -2.77 ± 0.55 | 
UAUCAGCAAUAUUACGUUUA | -0.0219 ± 0.069 | -0.174 ± 0.055
GGGAAGCAAUAUUACGGCAG | -2.07 ± 1.1 | 
GGAGAGCAAUAUUACGCUCU | -2.01 ± 0.65 | -2.81 ± 0.76
CUGGAGCAAUAUUACGCUCC | -0.113 ± 0.76 | 
CAAUAGCAAUAUUACGUGCC | -3.02 ± 0.32 | -2.98 ± 0.26
CAGCAGCAAUAUUACGAGCC |  | -3.27 ± 0.62
CUCAAGCAAUAUUACGACUU | -3.32 ± 0.52 | 
UCGAAGCAAUAUUACGUGGC |  | -6.08 ± 1
AACAAGCAAUAUUACGGAGC | -3.65 ± 0.36 | -4.22 ± 0.3

Sequence | self-splicing fitness (ln) (37 °C) | self-splicing fitness (ln) (30 °C)
UACUAGCAAUAUUACGUCAC | -2.39 ± 0.76 | 
UGCCAGCAAUAUUACGCCUG | -0.0397 ± 0.12 | -2.1 ± 0.16
UCUUAGCAAUAUUACGUCAC |  | -3.7 ± 1.1
CUGGAGCAAUAUUACGCAGU |  | -1.93 ± 0.58
CUAGAGCAAUAUUACGAUCA | -1.41 ± 0.71 | 
GUGCAGCAAUAUUACGCAUC |  | -4.18 ± 0.72
CUGCAGCAAUAUUACGCGUC | -2.05 ± 0.32 | -3.98 ± 0.35
GUGUAGCAAUAUUACGCCUC |  | -0.868 ± 1.4
GUUAAGCAAUAUUACGACGG | -2.3 ± 0.52 | -4.26 ± 0.51
AGUUAGCAAUAUUACGCCAG | -1.1 ± 0.76 | 
CCGAAGCAAUAUUACGCUCU | -1.3 ± 0.53 | 
UGAAAGCAAUAUUACGUCCC | 0.859 ± 0.64 | 
UUAAAGCAAUAUUACGGCUC | 0.714 ± 0.23 | -0.0999 ± 0.18
GGGGAGCAAUAUUACGCCGG | -0.928 ± 0.42 | -3.72 ± 0.73
UCUGAGCAAUAUUACGUCCU | -2.15 ± 0.51 | 
GCCGAGCAAUAUUACGGUCG | -4 ± 0.51 | 
GGUAAGCAAUAUUACGUAGU | -1.46 ± 0.17 | -1.48 ± 0.11
CCCGAGCAAUAUUACGCCAA | -2.12 ± 0.26 | -3.35 ± 0.31
UCUCAGCAAUAUUACGCCUG |  | -3.14 ± 0.56
GCGUAGCAAUAUUACGGGCC | -2.91 ± 0.74 | 
UCGAAGCAAUAUUACGAAAU |  | -4.3 ± 0.52
CCGUAGCAAUAUUACGGCCC |  | -0.828 ± 0.71
UCGUAGCAAUAUUACGGCAC | -1.2 ± 0.73 | -1.93 ± 1.2
CUAUAGCAAUAUUACGACUC |  | -3.69 ± 0.59
UGGUAGCAAUAUUACGGAGU | -3.39 ± 0.6 | 

Sequence | self-splicing fitness (ln) (37 °C) | self-splicing fitness (ln) (30 °C)
GGGUAGCAAUAUUACGAGUG | -1.63 ± 0.55 | -2.81 ± 0.82
CUUCAGCAAUAUUACGUUUA | -2.49 ± 0.23 | -3.96 ± 0.3
UCCGAGCAAUAUUACGAAGC |  | -3.77 ± 0.52
CGUGAGCAAUAUUACGCUAA |  | -2.21 ± 1.1
GCGGAGCAAUAUUACGGGGU | -2.92 ± 0.61 | 
CUCGAGCAAUAUUACGAACC | -2.41 ± 0.79 | -2.4 ± 0.57
CCGAAGCAAUAUUACGACAC | -1.09 ± 0.73 | -3.72 ± 1
CGAAAGCAAUAUUACGGGAC |  | -3.68 ± 0.73
GGAUAGCAAUAUUACGUGUC | -3.26 ± 0.52 | 
UCCUAGCAAUAUUACGGUCC | -1.52 ± 0.56 | 
AGCGAGCAAUAUUACGCUAU |  | -4.56 ± 0.51
GAUGAGCAAUAUUACGCCGC | -2.64 ± 0.76 | 
CGGUAGCAAUAUUACGGGAU | -3.12 ± 0.74 | 
CUCUAGCAAUAUUACGUUCC | -1.29 ± 0.51 | -2.29 ± 0.64
UAGCAGCAAUAUUACGGCUC | -0.839 ± 0.12 | -0.698 ± 0.094
AUACAGCAAUAUUACGCUGU | -3.51 ± 0.33 | -4.13 ± 0.36
CCCAAGCAAUAUUACGGCCC | -1.83 ± 0.82 | 
GUGCAGCAAUAUUACGCACC |  | -3.07 ± 0.79
UCAAAGCAAUAUUACGUUCC | -4.15 ± 1 | 
CGGGAGCAAUAUUACGACGA | -2.57 ± 0.51 | 
CUCUAGCAAUAUUACGCGUU |  | -5.33 ± 0.58
CCGCAGCAAUAUUACGACCC | -1.18 ± 0.57 | -2.78 ± 0.56
CGUGAGCAAUAUUACGCUUC | -3.07 ± 0.43 | -3.91 ± 0.41
AACAAGCAAUAUUACGCUGG | -1.04 ± 0.1 | -2.25 ± 0.081
AAUUAGCAAUAUUACGGAAA | -1.72 ± 0.49 | -1.83 ± 0.29

As a working copy, part of the list above:
Sequence | self-splicing fitness (ln) (37 °C) | self-splicing fitness (ln) (30 °C)
GCGUAGCAAUAUUACGGGCC | -2.91 ± 0.74 | 
UCGAAGCAAUAUUACGAAAU |  | -4.3 ± 0.52
CCGUAGCAAUAUUACGGCCC |  | -0.828 ± 0.71
UCGUAGCAAUAUUACGGCAC | -1.2 ± 0.73 | -1.93 ± 1.2
CUAUAGCAAUAUUACGACUC |  | -3.69 ± 0.59
UGGUAGCAAUAUUACGGAGU | -3.39 ± 0.6 | 
GGGUAGCAAUAUUACGAGUG | -1.63 ± 0.55 | -2.81 ± 0.82
CUUCAGCAAUAUUACGUUUA | -2.49 ± 0.23 | -3.96 ± 0.3
UCCGAGCAAUAUUACGAAGC |  | -3.77 ± 0.52
CGUGAGCAAUAUUACGCUAA |  | -2.21 ± 1.1
GCGGAGCAAUAUUACGGGGU | -2.92 ± 0.61 | 
CUCGAGCAAUAUUACGAACC | -2.41 ± 0.79 | -2.4 ± 0.57
CCGAAGCAAUAUUACGACAC | -1.09 ± 0.73 | -3.72 ± 1
CGAAAGCAAUAUUACGGGAC |  | -3.68 ± 0.73
GGAUAGCAAUAUUACGUGUC | -3.26 ± 0.52 | 
UCCUAGCAAUAUUACGGUCC | -1.52 ± 0.56 | 
AGCGAGCAAUAUUACGCUAU |  | -4.56 ± 0.51
GAUGAGCAAUAUUACGCCGC | -2.64 ± 0.76 | 
CGGUAGCAAUAUUACGGGAU | -3.12 ± 0.74 | 
CUCUAGCAAUAUUACGUUCC | -1.29 ± 0.51 | -2.29 ± 0.64
UAGCAGCAAUAUUACGGCUC | -0.839 ± 0.12 | -0.698 ± 0.094
AUACAGCAAUAUUACGCUGU | -3.51 ± 0.33 | -4.13 ± 0.36
CCCAAGCAAUAUUACGGCCC | -1.83 ± 0.82 | 
GUGCAGCAAUAUUACGCACC |  | -3.07 ± 0.79
UCAAAGCAAUAUUACGUUCC | -4.15 ± 1 | 
CGGGAGCAAUAUUACGACGA | -2.57 ± 0.51 | 
CUCUAGCAAUAUUACGCGUU |  | -5.33 ± 0.58
CCGCAGCAAUAUUACGACCC | -1.18 ± 0.57 | -2.78 ± 0.56

Additional results:

Sequence | self-splicing fitness (ln) (37 °C) | self-splicing fitness (ln) (30 °C)
CUACAGCAAUAUUACGGCUU | -4.03 ± 0.72 | 
GUUUAGCAAUAUUACGCUAC | -1.09 ± 0.65 | 
CCUGAGCAAUAUUACGAACA | -1.34 ± 0.61 | -2.43 ± 0.64
GUAUAGCAAUAUUACGUUAA | -3.17 ± 0.52 | -2.13 ± 0.61
UAAGAGCAAUAUUACGCCCC | 0.608 ± 1.1 | 
UACUAGCAAUAUUACGACAA | -0.256 ± 0.11 | -0.443 ± 0.12
AUAAAGCAAUAUUACGAUCC | -0.716 ± 0.22 | -1.21 ± 0.2
UACGAGCAAUAUUACGGUCC | -1.95 ± 0.51 | 
CGGGAGCAAUAUUACGCAAA |  | -3.33 ± 0.52
CAUUAGCAAUAUUACGUGUG | -3.15 ± 0.19 | -2.91 ± 0.19
CGGGAGCAAUAUUACGGGUC |  | -4.16 ± 1
CCAUAGCAAUAUUACGAGAA | -1.79 ± 0.51 | 
UCGGAGCAAUAUUACGUAAU |  | -3.05 ± 0.62
CAGGAGCAAUAUUACGGAGA | -2.34 ± 0.37 | -2.81 ± 0.28
AUGGAGCAAUAUUACGCUGG |  | -2.22 ± 0.56
CAUGAGCAAUAUUACGAGAA | -2.89 ± 1.1 | 
CAGAAGCAAUAUUACGUUAC | -2.72 ± 0.2 | -5.2 ± 0.59
GAUGAGCAAUAUUACGUGUC | -3.49 ± 1 | 
GGCCAGCAAUAUUACGAGAC | -2.77 ± 0.28 | -3.29 ± 0.25
UGGUAGCAAUAUUACGAAGC | -4.49 ± 1 | -3.66 ± 1
GGUCAGCAAUAUUACGGGCC | -2.52 ± 0.77 | -4.2 ± 0.6
AAGGAGCAAUAUUACGCUUC |  | -4.28 ± 0.59

Source: the supplement of paper PMC7877785
